# Results as given in the supplement of paper PMC6289059.
# Where “and” joins values, the source holds several entries; their conditions need not be identical. Identical values can stand only once. This is one part of the list. Single values are uncertain, as repeats are few or missing.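 The assay uses human stem cell-derived hepatocyte-like cells whose DGUOK gene was disrupted by CRISPR, modeling liver mtDNA depletion syndrome. ATP signals were scored within each plate, and any drug with a score of at least 3 was called a primary hit.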
# Tested on: DGUOK Δ14/Δ5 iPSC-derived hepatocyte-like cells (SV20)
# Experiment: ATP level (CellTiter-Glo luminescence) Z score relative to plate distribution, under 2-DG glycolysis block; higher = more cellular ATP (rescue of mitochondrial ATP production)
# Conditions: 5 µM; treatment time: day 15 to day 20 of differentiation (5 days); 2-deoxy-D-glucose: 20 mM for 24 h before assay
row,SMILES,ATP level
1,COc1ccc(Cc2cnc(N)nc2N)cc1OC,inactive: 0.0464
2,N=C(N)NC(=O)c1nc(Cl)c(N)nc1N,inactive: -0.462
3,CCCCOC(=O)c1ccc(N)cc1,inactive: -5.94
4,O=C(Nc1ccc(C(=O)O)c(O)c1)c1ccccc1,inactive: 1.33
5,CC[C@H]1OC(=O)[C@H](C)[C@@H](O[C@H]2C[C@@](C)(OC)[C@@H](O)[C@H](C)O2)[C@H](C)[C@@H](O[C@@H]2O[C@H](C)C[C@H](N(C)C)[C@H]2O)[C@](C)(OC)C[C@@H](C)C(=O)[C@H](C)[C@@H](O)[C@]1(C)O,inactive: -2.19
6,C[C@H]1COC2=C1C(=O)C(=O)c1c2ccc2c1CCCC2(C)C,inactive: -0.863
7,CCCCC1=NC2(CCCC2)C(=O)N1Cc1ccc(-c2ccccc2-c2nnn[nH]2)cc1,active: 6.19
8,NS(=O)(=O)c1cc2c(cc1Cl)N=CNS2(=O)=O,inactive: -0.195
9,CNS(=O)(=O)Cc1ccc2[nH]cc(CCN(C)C)c2c1,inactive: -3.51
10,O=C(CCCl)NCc1ccccc1,inactive: 0.179
11,CN[C@H](CC(C)C)C(=O)N[C@H]1C(=O)N[C@@H](CC(N)=O)C(=O)N[C@H]2C(=O)N[C@H]3C(=O)N[C@H](C(=O)N[C@H](C(=O)O)c4cc(O)cc(O)c4-c4cc3ccc4O)[C@H](O)c3ccc(c(Cl)c3)Oc3cc2cc(c3O[C@@H]2O[C@H](CO)[C@@H](O)[C@H](O)[C@H]2O[C@H]2C[C@](C)(N)[C@H](O)[C@H](C)O2)Oc2ccc(cc2Cl)[C@H]1O,inactive: -9.01
12,CCC(CCC(C)C1CCC2C3CCC4CC(O)CCC4(C)C3CCC12C)C(C)C (stereo not drawn),inactive: 2.08
13,NC(=O)c1ncn([C@@H]2O[C@H](CO)[C@@H](O)[C@H]2O)n1,inactive: -0.195
14,CCOc1ccc2c(c1)C(C)=CC(C)(C)N2,inactive: -2.24
15,C#CCCCCCCCCCCCC(O)CC(O)CO.C=CCCCCCCCCCCCC(O)CC(O)CO (stereo not drawn),active: 5.12
16,CCOC(=O)[C@H](CCc1ccccc1)N[C@@H](C)C(=O)N1[C@H](C(=O)O)C[C@@H]2CCC[C@@H]21,inactive: 0.000716
17,CC1=CC2C(C(C)C)CCC(C)(O)C2CC1 (stereo not drawn),inactive: 1.6
18,CC(C)COCC(CN(Cc1ccccc1)c1ccccc1)N1CCCC1 (stereo not drawn),inactive: -10.1
19,CC(=O)CC(=O)CCC(=O)O,inactive: -2.72
20,O=C(O)c1cc(=O)c2ccccc2o1,inactive: -1.31
21,COc1ccc2oc(-c3ccccc3)c(OC)c(=O)c2c1,inactive: 1.46
22,COc1ccc2ccc(=O)oc2c1,inactive: 1.93

row,SMILES,ATP level
1,Cc1cc(C2CCCCC2)n(O)c(=O)c1,inactive: -24.8
2,CC(C)(N=NC(C)(C)C(=N)N)C(=N)N,inactive: 0.276
3,O=C(O)c1cc2cc(Cl)ccc2[nH]1,inactive: 0.34
4,CC1(C)CC2C1CCC1(C)OC2(C)CCC1O (stereo not drawn),inactive: -1.78
5,CN(C)CC(c1ccc(O)cc1)C1(O)CCCCC1 (stereo not drawn),inactive: 1.32
6,NC(=O)[C@@H]1CCCN1C(=O)[C@H](Cc1c[nH]cn1)NC(=O)[C@@H]1CCC(=O)N1,active: 3.27
7,COc1c(N2CCNC(C)C2)c(F)cc2c(=O)c(C(=O)O)cn(C3CC3)c12 (stereo not drawn),inactive: -3.91
8,N[C@@H](C(=O)O)[C@@H](O)[C@H](O)[C@H](O)CO,inactive: -0.775
9,O=C(c1ccccc1)c1ccc2n1CCC2C(=O)O (stereo not drawn),inactive: -8.77
10,OCc1ccccc1O,inactive: -0.16
11,CN1Cc2c(N)cccc2C(c2ccccc2)C1 (stereo not drawn),inactive: -16.3
12,FC(F)(F)COCC(F)(F)F,inactive: 1.72
13,CCN[C@@H]1C[C@H](N)[C@@H](O[C@H]2OC(CN)=CC[C@H]2N)[C@H](O)[C@H]1O[C@H]1OC[C@](C)(O)[C@H](NC)[C@H]1O,inactive: 1.78
14,CC(C)(O)c1ccccc1CC[C@@H](SCC1(CC(=O)O)CC1)c1cccc(/C=C/c2ccc3ccc(Cl)cc3n2)c1,inactive: 0.688
15,C=C(C)[C@@H]1CC=C(CO)CC1,inactive: -2.08
16,CC(=O)Oc1cccc(C)c1 [meta-CRESYL ACETATE],inactive: 0.325
17,CCNC(=O)/C=C/c1cccc(Br)c1,inactive: 0.585
18,C=CCCCCCCCCC(=O)[O-].C=CCCCCCCCCC(=O)[O-].[Zn+2],inactive: 2.91
19,COC(=O)Nc1nc2cc([S+]([O-])c3ccccc3)ccc2[nH]1 (stereo not drawn),inactive: -3.1
20,O=c1cc(-c2ccccc2)oc2cccc(O)c12,inactive: 0.31
21,CNc1ccccc1C(=O)N1CCc2c([nH]c3ccccc23)C1=O,inactive: -4.97
22,COc1ccc2c(=O)c(CC(=O)O)coc2c1,inactive: 0.731

row,SMILES,ATP level
1,COc1ccccc1OCC(O)COC(N)=O (stereo not drawn),inactive: 0.693
2,Nc1c2c(nc3ccccc13)CCCC2O (stereo not drawn),inactive: -1.31
3,Nc1ccn([C@@H]2CS[C@H](CO)O2)c(=O)n1,inactive: 1.45
4,Cc1cc(N)c2ccccc2[n+]1CCCCCCCCCC[n+]1c(C)cc(N)c2ccccc21,inactive: -8.85
5,CO/N=C(\C(=O)N[C@@H]1C(=O)N2C(C(=O)OC(C)OC(C)=O)=C(COC(N)=O)CS[C@H]12)c1ccco1 (stereo partly drawn),inactive: 0.177
6,COc1cc(O)ccc1C(C)=O,inactive: 0.797
7,CC(=O)OCC(=O)[C@H]1CC[C@H]2[C@@H]3CCC4=CC(=O)CC[C@]4(C)[C@H]3CC[C@]12C,inactive: -1.4
8,C#C[C@]1(O)CC[C@H]2[C@@H]3CCC4=CC(=O)CC[C@@H]4[C@H]3CC[C@@]21CC,inactive: 0.494
9,CC(C)CCCC(C)NC(C)C (stereo not drawn),inactive: 2.24 and inactive: 1.32
10,N=C(N)NCCN1CCCCCCC1,inactive: -4.34
11,CC1(C)[C@@H](OC(=O)CCC(=O)O)CC[C@]2(C)[C@H]3C(=O)C=C4[C@@H]5C[C@@](C)(C(=O)O)CC[C@]5(C)CC[C@@]4(C)[C@]3(C)CC[C@@H]12,inactive: 1.09
12,CC(CN(C)C)CN1c2ccccc2Sc2ccccc21 (stereo not drawn),inactive: -0.761
13,C=CCOC(Cn1ccnc1)c1ccc(Cl)cc1Cl (stereo not drawn),inactive: -3.33
14,O=C(/C=C/c1ccc(O)c(O)c1)O[C@@H]1C[C@](O)(C(=O)O)C[C@@H](O)[C@H]1O,inactive: 2.09
15,CC[C@@H](CO)NCCN[C@@H](CC)CO,inactive: -1.09
16,C[C@]1(Cn2ccnn2)[C@H](C(=O)O)N2C(=O)C[C@H]2S1(=O)=O,inactive: 1.05
17,CC(=O)OCC(=O)[C@@]1(OC(C)=O)[C@@H](C)C[C@H]2[C@@H]3C[C@H](F)C4=CC(=O)C=C[C@]4(C)[C@@]3(F)[C@@H](O)C[C@@]21C,inactive: -17.8
18,Nc1ccccc1C(=O)CC(N)C(=O)O (stereo not drawn),inactive: 0.904
19,CCCCC/C=C\C/C=C\C/C=C\C/C=C\CCCC(=O)O,inactive: -1.7
20,CCN(CC)CCOCCOC(=O)C(CC)(CC)c1ccccc1,inactive: 0.874
21,CCCOc1ccc(C(=O)OCCN(CC)CC)cc1N,inactive: 1.68
22,C=CCSCC1Nc2cc(Cl)c(S(N)(=O)=O)cc2S(=O)(=O)N1 (stereo not drawn),inactive: 1.09

row,SMILES,ATP level
1,Cc1cc(-c2ccc(/N=N/c3ccc4c(S(=O)(=O)O)cc(S(=O)(=O)O)c(N)c4c3O)c(C)c2)ccc1/N=N/c1ccc2c(S(=O)(=O)O)cc(S(=O)(=O)O)c(N)c2c1O,inactive: -0.332
2,c1ccc(CN(CC2=NCCN2)c2ccccc2)cc1,inactive: -0.339
3,NC(=O)NS(=O)(=O)c1ccc(N)cc1,inactive: 0.774
4,CC(=O)N(CC(O)CN(C(C)=O)c1c(I)c(C(=O)NCC(O)CO)c(I)c(C(=O)NCC(O)CO)c1I)c1c(I)c(C(=O)NCC(O)CO)c(I)c(C(=O)NCC(O)CO)c1I (stereo not drawn),inactive: -0.0346
5,CCCCCCCCCCCCCCCCOP(=O)([O-])OCC[N+](C)(C)C,inactive: -3.08
6,Cc1ccsc1/C=C/C1=NCCCN1C,inactive: 0.785
7,COc1cc(C=CC(=O)O)cc(OC)c1O,inactive: 0.75
8,COc1cc(OC)c2c(=O)c(-c3ccc4c(c3)OCO4)coc2c1,inactive: 0.333
9,Nc1nc(NC2CC2)c2ncn([C@H]3C=C[C@@H](CO)C3)c2n1,inactive: 0.606
10,CCN(CC)CCNc1ccc(CO)c2sc3ccccc3c(=O)c12,inactive: -34.6
11,CCOc1ccc2nc3cc(N)ccc3c(N)c2c1,inactive: -11.6
12,O=c1c(O)cc([C@H]2Oc3cc(O)cc(O)c3C[C@H]2O)cc2c([C@H]3Oc4cc(O)cc(O)c4C[C@H]3O)cc(O)c(O)c12,inactive: 1.86
13,N[C@@H](Cc1ccc(O)cc1)C(=O)O,inactive: 1.21
14,O=C(COc1ccc(Cl)cc1)N1CCN(Cc2ccc3c(c2)OCO3)CC1,inactive: -0.518
15,CC(C)(C)CC(C)(C)c1ccc(O)c(Cc2ccc(Cl)cc2Cl)c1,inactive: -1.09
16,C[C@H]1[C@H](C)CC[C@]2(C(=O)O)CC[C@]3(C)C(=CC[C@@H]4[C@@]5(C)C[C@@H](O)[C@H](O)[C@@](C)(CO)[C@@H]5CC[C@]43C)[C@H]12,inactive: -2.07
17,CCN(CC)CCOC(=O)C(c1ccccc1)c1ccccc1,inactive: -26.6
18,C[C@]12CC[C@@H]3c4ccc(OS(=O)(=O)O)cc4CC[C@H]3[C@@H]1CCC2=O,inactive: 0.9
19,CC(C)CCCC(C)C1CCC2C3=CCC4CC(O)CCC4(C)C3CCC21C (stereo not drawn),inactive: 0.787
20,Cc1ccc(S(=O)(=O)NC(=O)NN2CCCCCC2)cc1,inactive: 2.83
21,COc1cccc(OC)c1C(=O)N[C@@H]1C(=O)N2[C@@H]1SC(C)(C)[C@@H]2C(=O)O,inactive: 0.829
22,COc1cc(NC(C)CCCN)c2ncccc2c1 (stereo not drawn),inactive: 1.8
